{
  "sequences": {"note": "Sequences of proteins named here, by UniProt entry; tags and fusion partners are left off. A change or cut given only in a name is not applied to a line headed by its entry.", "UniProt Q8WTW3": "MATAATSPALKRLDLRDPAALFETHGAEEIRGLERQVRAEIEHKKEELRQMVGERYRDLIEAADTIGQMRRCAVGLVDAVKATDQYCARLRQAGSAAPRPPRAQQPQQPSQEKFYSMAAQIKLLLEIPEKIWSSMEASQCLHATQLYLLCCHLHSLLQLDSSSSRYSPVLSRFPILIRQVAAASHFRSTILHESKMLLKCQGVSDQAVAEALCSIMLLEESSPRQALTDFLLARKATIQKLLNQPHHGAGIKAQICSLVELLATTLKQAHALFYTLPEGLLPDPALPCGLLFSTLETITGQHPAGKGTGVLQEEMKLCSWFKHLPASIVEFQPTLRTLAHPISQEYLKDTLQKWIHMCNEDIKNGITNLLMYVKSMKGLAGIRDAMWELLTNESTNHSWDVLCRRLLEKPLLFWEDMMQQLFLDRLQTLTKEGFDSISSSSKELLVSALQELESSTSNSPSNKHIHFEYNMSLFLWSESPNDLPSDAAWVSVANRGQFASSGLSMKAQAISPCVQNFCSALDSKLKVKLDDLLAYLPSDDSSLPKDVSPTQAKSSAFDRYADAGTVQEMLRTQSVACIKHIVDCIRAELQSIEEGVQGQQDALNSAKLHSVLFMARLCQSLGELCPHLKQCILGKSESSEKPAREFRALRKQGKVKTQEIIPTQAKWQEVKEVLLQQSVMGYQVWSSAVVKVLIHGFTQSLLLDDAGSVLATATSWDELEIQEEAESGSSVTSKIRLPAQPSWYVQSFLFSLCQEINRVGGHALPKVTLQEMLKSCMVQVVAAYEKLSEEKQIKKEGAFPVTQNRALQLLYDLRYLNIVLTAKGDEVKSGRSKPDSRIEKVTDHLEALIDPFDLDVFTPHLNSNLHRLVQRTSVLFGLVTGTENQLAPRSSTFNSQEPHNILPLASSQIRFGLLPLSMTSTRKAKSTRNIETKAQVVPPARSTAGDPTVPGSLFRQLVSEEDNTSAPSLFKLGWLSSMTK", "UniProt Q9UBF2": "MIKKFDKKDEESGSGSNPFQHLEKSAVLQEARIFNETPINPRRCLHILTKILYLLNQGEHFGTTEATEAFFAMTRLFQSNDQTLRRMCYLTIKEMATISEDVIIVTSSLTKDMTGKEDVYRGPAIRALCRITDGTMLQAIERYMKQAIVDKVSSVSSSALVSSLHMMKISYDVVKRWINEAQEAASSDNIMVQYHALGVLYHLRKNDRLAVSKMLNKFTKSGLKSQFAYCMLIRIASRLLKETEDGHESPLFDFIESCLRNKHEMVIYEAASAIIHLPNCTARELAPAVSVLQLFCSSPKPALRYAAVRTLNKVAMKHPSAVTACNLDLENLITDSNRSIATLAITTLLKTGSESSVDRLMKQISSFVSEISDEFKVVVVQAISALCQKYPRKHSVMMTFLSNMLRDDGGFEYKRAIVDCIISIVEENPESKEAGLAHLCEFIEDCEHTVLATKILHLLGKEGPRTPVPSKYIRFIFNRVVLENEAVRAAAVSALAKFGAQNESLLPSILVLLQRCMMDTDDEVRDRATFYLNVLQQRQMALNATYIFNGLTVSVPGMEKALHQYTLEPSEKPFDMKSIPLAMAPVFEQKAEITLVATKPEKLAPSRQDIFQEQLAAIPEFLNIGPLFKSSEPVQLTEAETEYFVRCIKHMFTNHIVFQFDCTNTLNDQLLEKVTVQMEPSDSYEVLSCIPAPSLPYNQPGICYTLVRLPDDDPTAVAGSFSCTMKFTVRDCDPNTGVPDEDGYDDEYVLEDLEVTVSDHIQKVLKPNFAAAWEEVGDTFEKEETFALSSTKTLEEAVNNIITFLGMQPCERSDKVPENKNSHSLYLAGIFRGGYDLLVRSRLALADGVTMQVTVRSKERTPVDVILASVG"},
  "source": "the supplement of paper PMC12067093",
  "about": "“Discovery and optimisation of a covalent ligand for TRIM25 and its application to targeted protein ubiquitination” (Chemical Science, 2025)",
  "key": {"[1]": {"target": "COG1_Q8WTW3_584_HIVDCIR (UniProt Q8WTW3)", "test": "probe-labelled cysteine peptide fold change vs DMSO (competition) (log2 fold change); higher = less target engagement (more negative = stronger competition)", "details": "THP-1, incubation time: 4 h"}, "[2]": {"target": "COPG2_Q9UBF2_662_HMFTNHIVFQFDCTNTLNDQLLEK (UniProt Q9UBF2)", "test": "probe-labelled cysteine peptide fold change vs DMSO (competition) (log2 fold change); higher = less target engagement (more negative = stronger competition)", "details": "THP-1, incubation time: 4 h"}},
  "note": "This is one part of the list.",
  "data": [
    {"compound": "CC1Cc2ccccc2N1C(=O)C1CCCN(C(=O)CCl)C1", "note": "(mixture of isomers) [TRIM25 ligand 11 (diastereomer mixture)];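 note: competitive chemoproteomic profiling in live THP-1 cells with an iodoacetamide desthiobiotin (IA-DTB) probe, comparing probe-labelled peptide intensities in compound-treated cells against DMSO-treated controls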", "values": [
      {"measurement": "probe-labelled cysteine peptide fold change", "setting": "[1]; 10 µM", "result": 0.0311},
      {"measurement": "probe-labelled cysteine peptide fold change", "setting": "[1]; 50 µM", "result": 0.232},
      {"measurement": "probe-labelled cysteine peptide fold change", "setting": "[2]; 10 µM", "result": 0.00666},
      {"measurement": "probe-labelled cysteine peptide fold change", "setting": "[2]; 50 µM", "result": -0.0937}
    ]}
  ]
}
